These are yes or no findings as the source states them, for the method shown. Binding seen in cells or lysates may run through a third protein. Some entries that bind do so weakly or less than the wild type.
Target: HIV-2 Rod9 Vpr, 3x FLAG-tagged (HIV-2 (isolate Rod9)) (UniProt P06938)
Assay: co-IP; 3x-FLAG Vpr precipitated with anti-FLAG affinity beads from RIPA lysates of transiently transfected U2OS cells; blot for endogenous DCAF1

Protein sequences, listed by entry. Tags and fused reporters are not part of them.
UniProt P06938: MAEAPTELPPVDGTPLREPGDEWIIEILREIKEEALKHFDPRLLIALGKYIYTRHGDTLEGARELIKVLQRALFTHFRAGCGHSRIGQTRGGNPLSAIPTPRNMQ
UniProt Q9Y4B6: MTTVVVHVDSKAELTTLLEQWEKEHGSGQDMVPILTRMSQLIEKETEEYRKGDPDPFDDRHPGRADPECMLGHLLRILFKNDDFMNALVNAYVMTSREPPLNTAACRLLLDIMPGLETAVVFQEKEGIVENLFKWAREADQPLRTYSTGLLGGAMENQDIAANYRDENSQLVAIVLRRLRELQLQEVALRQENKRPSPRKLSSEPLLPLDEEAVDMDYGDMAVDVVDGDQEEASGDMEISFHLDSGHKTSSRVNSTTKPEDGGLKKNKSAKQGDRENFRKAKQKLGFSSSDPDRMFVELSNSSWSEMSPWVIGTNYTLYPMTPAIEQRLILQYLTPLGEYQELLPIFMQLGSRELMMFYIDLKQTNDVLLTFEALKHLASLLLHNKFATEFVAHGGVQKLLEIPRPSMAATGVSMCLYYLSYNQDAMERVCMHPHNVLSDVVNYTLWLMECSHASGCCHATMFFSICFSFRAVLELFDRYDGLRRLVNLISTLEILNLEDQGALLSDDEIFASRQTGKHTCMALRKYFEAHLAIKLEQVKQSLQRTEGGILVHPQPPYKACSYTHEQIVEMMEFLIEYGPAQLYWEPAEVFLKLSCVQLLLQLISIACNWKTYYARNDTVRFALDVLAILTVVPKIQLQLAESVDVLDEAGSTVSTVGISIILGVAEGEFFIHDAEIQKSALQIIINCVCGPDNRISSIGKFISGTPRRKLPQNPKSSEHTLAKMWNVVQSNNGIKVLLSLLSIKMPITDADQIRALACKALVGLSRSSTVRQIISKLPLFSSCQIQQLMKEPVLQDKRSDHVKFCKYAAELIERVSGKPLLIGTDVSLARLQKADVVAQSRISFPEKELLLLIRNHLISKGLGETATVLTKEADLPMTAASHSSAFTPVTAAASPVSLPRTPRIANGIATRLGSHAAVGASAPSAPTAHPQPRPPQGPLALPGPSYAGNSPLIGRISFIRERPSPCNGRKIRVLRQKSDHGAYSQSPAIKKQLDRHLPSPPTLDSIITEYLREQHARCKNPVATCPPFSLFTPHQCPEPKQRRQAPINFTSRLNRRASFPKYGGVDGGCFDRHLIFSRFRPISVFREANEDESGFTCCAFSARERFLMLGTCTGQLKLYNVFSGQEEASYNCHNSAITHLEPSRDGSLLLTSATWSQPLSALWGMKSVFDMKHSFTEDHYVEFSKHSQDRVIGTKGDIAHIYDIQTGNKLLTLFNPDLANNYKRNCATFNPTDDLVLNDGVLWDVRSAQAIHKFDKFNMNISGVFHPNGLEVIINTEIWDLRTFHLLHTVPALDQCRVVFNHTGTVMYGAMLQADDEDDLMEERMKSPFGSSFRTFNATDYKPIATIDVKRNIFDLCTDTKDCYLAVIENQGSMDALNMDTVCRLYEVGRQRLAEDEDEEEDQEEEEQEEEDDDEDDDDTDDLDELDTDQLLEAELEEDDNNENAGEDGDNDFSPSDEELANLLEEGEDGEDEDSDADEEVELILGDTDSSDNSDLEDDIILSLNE

DCAF1, endogenous human (from UniProt Q9Y4B6 1-1507)
binding: binds

— publication PMC7407082
